The record followed here is PMC9712689.

Chains of the proteins cited; added tags and fusions are not shown. Residues count along the entry.
UniProt Q9HXN1, residues 33-490: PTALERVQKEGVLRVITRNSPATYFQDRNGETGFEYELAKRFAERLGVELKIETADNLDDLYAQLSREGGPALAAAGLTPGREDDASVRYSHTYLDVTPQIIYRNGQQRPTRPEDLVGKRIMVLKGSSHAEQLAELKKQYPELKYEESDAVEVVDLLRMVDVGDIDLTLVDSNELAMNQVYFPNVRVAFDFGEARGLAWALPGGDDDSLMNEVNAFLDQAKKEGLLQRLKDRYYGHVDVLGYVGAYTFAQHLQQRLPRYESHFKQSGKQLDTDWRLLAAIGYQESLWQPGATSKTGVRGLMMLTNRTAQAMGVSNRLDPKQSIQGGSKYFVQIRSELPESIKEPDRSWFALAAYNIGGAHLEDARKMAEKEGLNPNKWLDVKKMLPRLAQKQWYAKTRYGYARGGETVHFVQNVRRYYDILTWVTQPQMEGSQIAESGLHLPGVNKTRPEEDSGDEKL
UniProt Q9I788: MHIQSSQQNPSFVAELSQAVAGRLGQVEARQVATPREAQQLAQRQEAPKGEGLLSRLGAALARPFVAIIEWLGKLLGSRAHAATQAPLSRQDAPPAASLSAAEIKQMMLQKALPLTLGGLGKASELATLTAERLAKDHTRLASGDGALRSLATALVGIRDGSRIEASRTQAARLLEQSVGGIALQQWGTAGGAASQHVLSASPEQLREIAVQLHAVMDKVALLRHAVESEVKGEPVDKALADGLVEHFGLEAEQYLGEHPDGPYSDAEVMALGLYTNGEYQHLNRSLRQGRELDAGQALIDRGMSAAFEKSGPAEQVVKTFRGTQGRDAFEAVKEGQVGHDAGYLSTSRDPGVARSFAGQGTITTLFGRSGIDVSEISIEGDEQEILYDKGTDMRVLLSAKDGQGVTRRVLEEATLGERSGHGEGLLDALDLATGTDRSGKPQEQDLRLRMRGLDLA
UniProt Q07806: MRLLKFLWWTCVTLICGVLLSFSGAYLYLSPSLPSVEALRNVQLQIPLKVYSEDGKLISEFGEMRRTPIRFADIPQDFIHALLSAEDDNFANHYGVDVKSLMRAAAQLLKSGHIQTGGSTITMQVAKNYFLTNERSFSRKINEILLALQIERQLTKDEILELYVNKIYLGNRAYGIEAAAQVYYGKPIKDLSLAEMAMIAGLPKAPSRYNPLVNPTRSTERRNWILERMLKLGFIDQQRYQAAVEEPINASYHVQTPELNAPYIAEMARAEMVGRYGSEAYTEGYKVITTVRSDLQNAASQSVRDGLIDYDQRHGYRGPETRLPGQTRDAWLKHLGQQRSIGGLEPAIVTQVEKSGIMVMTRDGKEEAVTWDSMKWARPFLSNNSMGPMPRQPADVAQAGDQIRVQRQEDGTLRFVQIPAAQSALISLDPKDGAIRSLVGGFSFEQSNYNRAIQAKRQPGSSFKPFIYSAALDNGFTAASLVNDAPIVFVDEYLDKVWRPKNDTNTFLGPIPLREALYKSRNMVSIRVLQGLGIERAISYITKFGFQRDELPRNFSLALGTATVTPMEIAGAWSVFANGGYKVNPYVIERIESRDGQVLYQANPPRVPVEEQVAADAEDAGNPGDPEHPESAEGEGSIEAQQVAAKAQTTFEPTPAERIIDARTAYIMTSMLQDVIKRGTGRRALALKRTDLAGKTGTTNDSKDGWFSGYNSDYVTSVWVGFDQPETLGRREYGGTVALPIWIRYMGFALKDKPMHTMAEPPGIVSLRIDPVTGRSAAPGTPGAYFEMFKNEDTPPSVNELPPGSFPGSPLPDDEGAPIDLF

No constants are given. Whether binding was seen depends on the method and setting. Binding seen in cells or lysates may run through a third protein. These calls come from enrichment with a bait or labelling near it, and not all partners need be listed.

In test [1] the target is RlpA-Δ32 (rare lipoprotein A), N-terminally His-tagged (P. aeruginosa PAO1) (UniProt Q9X6V6). In words: affinity purification with mass spectrometry; only the target purified.
For test [2], the target named is MltA, N-terminal His-tagged construct (P. aeruginosa) (UniProt Q9I4B6). Briefly: affinity purification with mass spectrometry; N-terminally His-tagged LT on Ni-NTA resin incubated with the soluble or the 0.5% NP-40-solubilised membrane proteome of P. aeruginosa PAO1, 4 °C overnight; eluted with 500 mM imidazole; no cross-linker; only the target purified.
Test [3] concerns the target Slt, N-terminal His-tagged construct (P. aeruginosa) (UniProt Q9HZI6). Described as above.
In test [4] the target is MltF2, N-terminal His-tagged construct (P. aeruginosa) (UniProt Q9HZY1). The test is described as above.
In test [5] the target is MltG, N-terminal His-tagged construct (P. aeruginosa) (UniProt Q9HZN7). The description is as above.
Test [6] deals with MltD, N-terminal His-tagged construct (P. aeruginosa) (UniProt Q9I2T2). The description is as above.
The target in test [7] is RlpA-Δ32 (rare lipoprotein A), N-terminally His-tagged (P. aeruginosa PAO1) (UniProt Q9X6V6). The test is described as above.
Test [8] addresses MltB, N-terminal His-tagged construct (P. aeruginosa) (UniProt Q9HVX3). The test is described as above.
For test [9], the target named is MltF2, N-terminal His-tagged construct (P. aeruginosa) (UniProt Q9HZY1). In words: affinity purification with mass spectrometry; only the target purified.
The target of test [10] is MltF, N-terminal His-tagged construct (P. aeruginosa) (UniProt Q9HXN1). Briefly: affinity purification with mass spectrometry; N-terminally His-tagged LT on Ni-NTA resin incubated with the soluble or the 0.5% NP-40-solubilised membrane proteome of P. aeruginosa PAO1, 4 °C overnight; eluted with 500 mM imidazole; no cross-linker; only the target purified.
In test [11] the target is RlpA-Δ32 (rare lipoprotein A), N-terminally His-tagged (P. aeruginosa PAO1) (UniProt Q9X6V6). Briefly: affinity purification with mass spectrometry; His-tagged RlpA-Δ32 incubated with PAO1 proteome overnight at 4 °C, cross-linked with BS^3, then captured on Ni-NTA resin; only the target purified.

ExoT (from UniProt Q9I788 1-457): the binding result in test [1] is reported as “binds”.

On to MigA (from UniProt Q9I5M1), for which, in test [1], the binding entry is “binds”.

Regarding MltF (from UniProt Q9HXN1 33-490), the binding entry in test [2], in test [3], in test [4], in test [5], in test [6] and in test [7] was “binds” throughout. In addition, the binding result in test [8] is “binds”.

Turning to PA2854 (from UniProt Q9HZZ0), the binding entry in [9] and in test [1] was “binds” in each case.

On to PA3020 (from UniProt Q9HZI6), for which the binding entry in [3], in test [4] and in test [5] was “binds” in each case.

As to PA3999 (from UniProt G3XD74), the binding entry in [3], in test [10] and in test [5] was “binds” each time.

For PA4063 (from UniProt Q9HWW5), the binding entry in test [1] was “binds”.

As for PBP1a (from UniProt Q07806 1-822), in test [7], the binding entry is on record as “binds”.

Take PvdL (from UniProt Q9I157): in test [1], the binding result is given as “binds”.

TypA (from UniProt Q9HU67): the binding result in test [2], in test [3], in test [4], in test [10], in [5] and in [6] was “binds” each time. In addition, the binding result in test [7], in test [8] and in test [11] was “binds” in each case.

Regarding Wzz (from UniProt G3XCY2), in [1], the binding entry is on record as “binds”.
